Results are given in words; binding and its absence hold for the method and conditions named. Binding seen in cells or lysates may run through a third protein. These calls come from enrichment with a bait or labelling near it, and not all partners need be listed.
Experiments:
[1] = target: RebL1-HA (T. thermophila) (UniProt I7MMT8); assay: affinity purification with mass spectrometry; RebL1-HA cells in vegetative growth; lysate on anti-HA agarose overnight at 4 °C, washed seven times with TBST; control: WT cells without HA-tag; hits: RebL1-HA/WT peptide count ratio more than 40
[2] = target: RebL1-HA (T. thermophila) (UniProt I7MMT8); assay: affinity purification with mass spectrometry; RebL1-HA cells at 8 h of conjugation; lysate on anti-HA agarose overnight at 4 °C, washed seven times with TBST; control: WT cells without HA-tag; hits: RebL1-HA/WT peptide count ratio more than 20

Chains of the proteins cited; added tags and fusions are not shown. Lines headed by an entry give the natural chain unless they say otherwise; changes in a name come on top.
UniProt I7MMT8: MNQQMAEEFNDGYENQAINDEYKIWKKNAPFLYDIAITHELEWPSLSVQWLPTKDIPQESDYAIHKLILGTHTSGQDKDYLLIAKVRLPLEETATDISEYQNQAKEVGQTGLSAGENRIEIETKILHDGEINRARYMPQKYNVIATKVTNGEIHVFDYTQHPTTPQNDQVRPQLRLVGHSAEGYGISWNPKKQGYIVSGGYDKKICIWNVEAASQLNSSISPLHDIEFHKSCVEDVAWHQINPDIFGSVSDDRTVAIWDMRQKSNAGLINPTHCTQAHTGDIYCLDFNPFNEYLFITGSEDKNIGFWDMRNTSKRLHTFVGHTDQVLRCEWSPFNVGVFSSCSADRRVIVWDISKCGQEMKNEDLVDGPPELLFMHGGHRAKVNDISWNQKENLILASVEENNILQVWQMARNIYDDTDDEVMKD
UniProt I7LV35: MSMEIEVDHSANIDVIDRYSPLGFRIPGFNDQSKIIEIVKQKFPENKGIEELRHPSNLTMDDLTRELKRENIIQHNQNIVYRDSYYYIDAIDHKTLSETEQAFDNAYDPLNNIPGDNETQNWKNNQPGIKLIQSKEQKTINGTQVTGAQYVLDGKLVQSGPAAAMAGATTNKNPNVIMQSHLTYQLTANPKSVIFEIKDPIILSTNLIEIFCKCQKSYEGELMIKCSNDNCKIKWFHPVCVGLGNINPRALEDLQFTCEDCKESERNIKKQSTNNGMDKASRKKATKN
UniProt I7MEY9: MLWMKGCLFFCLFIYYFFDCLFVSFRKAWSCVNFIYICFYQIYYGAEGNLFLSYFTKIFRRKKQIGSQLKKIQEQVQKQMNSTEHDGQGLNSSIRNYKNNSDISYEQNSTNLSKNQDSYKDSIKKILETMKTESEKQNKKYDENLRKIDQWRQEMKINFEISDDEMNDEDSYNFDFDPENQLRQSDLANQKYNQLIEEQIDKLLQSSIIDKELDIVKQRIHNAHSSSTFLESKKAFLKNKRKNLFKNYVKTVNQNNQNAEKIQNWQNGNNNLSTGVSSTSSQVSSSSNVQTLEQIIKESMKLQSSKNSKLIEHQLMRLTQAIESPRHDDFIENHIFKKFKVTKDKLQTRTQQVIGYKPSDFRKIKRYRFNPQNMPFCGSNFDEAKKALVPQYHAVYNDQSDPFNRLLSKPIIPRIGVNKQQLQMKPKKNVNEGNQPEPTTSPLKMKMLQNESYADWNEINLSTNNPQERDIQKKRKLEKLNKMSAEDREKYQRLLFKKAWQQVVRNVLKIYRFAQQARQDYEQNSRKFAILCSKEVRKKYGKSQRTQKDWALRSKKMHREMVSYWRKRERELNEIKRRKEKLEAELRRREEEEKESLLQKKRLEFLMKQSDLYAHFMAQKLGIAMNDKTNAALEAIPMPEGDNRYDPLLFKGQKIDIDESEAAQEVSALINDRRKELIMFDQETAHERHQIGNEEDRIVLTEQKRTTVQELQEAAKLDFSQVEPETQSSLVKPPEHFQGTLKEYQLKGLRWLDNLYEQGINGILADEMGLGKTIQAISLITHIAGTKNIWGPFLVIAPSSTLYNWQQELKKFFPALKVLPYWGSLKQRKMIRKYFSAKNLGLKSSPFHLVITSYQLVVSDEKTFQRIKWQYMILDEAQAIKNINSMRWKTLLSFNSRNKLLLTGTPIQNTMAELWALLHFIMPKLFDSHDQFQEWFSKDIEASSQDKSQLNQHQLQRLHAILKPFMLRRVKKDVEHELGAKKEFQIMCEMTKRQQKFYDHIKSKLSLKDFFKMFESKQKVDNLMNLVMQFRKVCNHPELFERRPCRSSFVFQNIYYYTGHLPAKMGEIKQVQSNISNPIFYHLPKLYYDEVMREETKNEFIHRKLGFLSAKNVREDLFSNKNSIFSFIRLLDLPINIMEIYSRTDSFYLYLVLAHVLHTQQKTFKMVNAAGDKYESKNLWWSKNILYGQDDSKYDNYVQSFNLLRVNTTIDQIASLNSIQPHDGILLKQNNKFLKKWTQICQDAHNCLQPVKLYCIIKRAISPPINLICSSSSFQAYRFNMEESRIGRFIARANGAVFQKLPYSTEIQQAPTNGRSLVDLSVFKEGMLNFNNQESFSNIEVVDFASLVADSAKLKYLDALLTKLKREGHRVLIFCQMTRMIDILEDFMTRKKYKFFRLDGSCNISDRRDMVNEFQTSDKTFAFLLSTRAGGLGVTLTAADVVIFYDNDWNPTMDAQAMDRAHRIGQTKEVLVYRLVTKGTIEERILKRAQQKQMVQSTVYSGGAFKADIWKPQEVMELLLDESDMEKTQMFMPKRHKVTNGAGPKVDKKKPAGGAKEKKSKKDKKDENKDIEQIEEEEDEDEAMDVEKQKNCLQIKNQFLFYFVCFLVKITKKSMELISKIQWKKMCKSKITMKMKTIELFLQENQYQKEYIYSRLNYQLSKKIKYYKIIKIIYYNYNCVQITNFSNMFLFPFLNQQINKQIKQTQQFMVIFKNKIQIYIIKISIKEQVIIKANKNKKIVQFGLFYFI
UniProt Q238S4: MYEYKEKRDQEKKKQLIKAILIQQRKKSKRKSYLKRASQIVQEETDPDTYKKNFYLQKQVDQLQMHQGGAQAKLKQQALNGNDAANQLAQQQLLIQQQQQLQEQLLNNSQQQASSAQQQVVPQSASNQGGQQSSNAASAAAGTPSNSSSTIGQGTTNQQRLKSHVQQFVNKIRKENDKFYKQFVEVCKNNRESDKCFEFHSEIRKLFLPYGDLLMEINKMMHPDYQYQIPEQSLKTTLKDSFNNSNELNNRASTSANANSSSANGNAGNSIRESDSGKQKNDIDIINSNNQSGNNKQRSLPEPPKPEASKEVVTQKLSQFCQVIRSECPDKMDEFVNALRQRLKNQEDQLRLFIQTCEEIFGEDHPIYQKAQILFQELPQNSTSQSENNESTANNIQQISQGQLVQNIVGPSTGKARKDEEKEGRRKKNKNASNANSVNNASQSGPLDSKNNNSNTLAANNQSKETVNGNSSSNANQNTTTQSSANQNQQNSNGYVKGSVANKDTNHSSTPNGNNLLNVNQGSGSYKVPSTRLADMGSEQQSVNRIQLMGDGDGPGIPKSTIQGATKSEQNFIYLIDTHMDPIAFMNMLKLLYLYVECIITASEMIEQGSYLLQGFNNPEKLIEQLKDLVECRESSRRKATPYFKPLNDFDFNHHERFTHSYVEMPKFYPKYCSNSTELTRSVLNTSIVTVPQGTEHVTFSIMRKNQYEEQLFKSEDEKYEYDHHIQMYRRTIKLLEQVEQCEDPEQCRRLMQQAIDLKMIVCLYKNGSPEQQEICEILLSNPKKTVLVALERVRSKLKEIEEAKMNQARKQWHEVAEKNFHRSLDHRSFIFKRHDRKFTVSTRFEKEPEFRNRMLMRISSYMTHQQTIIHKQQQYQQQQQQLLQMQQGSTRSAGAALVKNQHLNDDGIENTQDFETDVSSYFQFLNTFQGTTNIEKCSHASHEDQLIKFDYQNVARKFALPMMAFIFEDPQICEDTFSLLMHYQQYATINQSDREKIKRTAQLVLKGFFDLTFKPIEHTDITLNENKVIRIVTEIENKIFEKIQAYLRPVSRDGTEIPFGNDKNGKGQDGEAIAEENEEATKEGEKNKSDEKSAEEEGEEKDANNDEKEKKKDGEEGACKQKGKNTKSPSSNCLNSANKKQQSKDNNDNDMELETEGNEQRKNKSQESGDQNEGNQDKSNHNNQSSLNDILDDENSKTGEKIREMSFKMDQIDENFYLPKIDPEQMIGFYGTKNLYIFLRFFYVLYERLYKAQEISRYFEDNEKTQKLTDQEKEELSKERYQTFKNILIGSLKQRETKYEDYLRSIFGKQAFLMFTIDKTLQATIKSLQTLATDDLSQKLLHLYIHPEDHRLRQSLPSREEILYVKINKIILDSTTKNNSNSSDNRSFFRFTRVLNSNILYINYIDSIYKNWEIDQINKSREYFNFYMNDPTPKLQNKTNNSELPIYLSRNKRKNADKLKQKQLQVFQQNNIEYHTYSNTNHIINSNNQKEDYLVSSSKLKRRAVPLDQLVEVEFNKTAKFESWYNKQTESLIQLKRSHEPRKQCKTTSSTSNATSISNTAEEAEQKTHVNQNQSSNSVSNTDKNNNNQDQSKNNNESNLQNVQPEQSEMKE
UniProt Q22DB9: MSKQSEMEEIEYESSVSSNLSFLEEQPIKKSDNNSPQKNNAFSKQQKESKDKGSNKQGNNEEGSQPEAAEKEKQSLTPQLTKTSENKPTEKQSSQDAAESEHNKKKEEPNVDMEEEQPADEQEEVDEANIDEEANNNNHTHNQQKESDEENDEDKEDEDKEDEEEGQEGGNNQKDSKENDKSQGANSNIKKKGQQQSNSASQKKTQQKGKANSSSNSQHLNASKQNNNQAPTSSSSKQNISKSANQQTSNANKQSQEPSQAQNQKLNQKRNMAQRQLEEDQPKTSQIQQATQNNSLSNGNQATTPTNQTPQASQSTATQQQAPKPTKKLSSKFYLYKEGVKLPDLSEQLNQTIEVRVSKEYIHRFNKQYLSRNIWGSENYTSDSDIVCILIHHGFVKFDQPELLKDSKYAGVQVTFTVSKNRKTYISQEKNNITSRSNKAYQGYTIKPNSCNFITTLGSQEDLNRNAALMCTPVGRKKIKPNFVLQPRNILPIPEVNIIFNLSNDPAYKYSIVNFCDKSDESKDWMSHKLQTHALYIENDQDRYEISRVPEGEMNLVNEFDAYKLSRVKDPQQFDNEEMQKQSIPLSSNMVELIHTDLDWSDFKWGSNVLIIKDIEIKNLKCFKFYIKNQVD

Row | binding [1] | binding [2] | Substance
1 | binds |  | TTHERM_00476650/Pho23 (from UniProt I7LV35)
2 |  | binds | TTHERM_00343570 (homologous to INO80 ATPase in yeast) (from UniProt I7MEY9)
3 | binds | binds | TTHERM_00450950/Sin3 (from UniProt Q238S4)
4 | binds |  | TTHERM_00992830/Rxt3 (from UniProt Q22DB9)

Source: publication PMC11136921
